Experimental data taken from PMC10665321.

Sequences of proteins named here, by UniProt entry; tags and fusion partners are left off. Residues count along the entry.
UniProt P08207: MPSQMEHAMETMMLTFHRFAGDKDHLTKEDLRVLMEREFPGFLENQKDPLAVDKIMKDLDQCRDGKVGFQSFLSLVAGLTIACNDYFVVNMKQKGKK
UniProt P07356: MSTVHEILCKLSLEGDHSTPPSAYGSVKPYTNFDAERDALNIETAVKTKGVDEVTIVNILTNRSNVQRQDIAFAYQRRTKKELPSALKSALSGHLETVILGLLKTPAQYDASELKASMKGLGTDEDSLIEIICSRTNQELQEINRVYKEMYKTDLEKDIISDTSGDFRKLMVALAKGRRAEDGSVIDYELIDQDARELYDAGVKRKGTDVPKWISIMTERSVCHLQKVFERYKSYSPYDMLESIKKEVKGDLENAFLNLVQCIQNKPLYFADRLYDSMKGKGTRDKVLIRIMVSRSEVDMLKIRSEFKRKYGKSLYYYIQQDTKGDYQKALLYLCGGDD
UniProt Q01097, residues 27-1482: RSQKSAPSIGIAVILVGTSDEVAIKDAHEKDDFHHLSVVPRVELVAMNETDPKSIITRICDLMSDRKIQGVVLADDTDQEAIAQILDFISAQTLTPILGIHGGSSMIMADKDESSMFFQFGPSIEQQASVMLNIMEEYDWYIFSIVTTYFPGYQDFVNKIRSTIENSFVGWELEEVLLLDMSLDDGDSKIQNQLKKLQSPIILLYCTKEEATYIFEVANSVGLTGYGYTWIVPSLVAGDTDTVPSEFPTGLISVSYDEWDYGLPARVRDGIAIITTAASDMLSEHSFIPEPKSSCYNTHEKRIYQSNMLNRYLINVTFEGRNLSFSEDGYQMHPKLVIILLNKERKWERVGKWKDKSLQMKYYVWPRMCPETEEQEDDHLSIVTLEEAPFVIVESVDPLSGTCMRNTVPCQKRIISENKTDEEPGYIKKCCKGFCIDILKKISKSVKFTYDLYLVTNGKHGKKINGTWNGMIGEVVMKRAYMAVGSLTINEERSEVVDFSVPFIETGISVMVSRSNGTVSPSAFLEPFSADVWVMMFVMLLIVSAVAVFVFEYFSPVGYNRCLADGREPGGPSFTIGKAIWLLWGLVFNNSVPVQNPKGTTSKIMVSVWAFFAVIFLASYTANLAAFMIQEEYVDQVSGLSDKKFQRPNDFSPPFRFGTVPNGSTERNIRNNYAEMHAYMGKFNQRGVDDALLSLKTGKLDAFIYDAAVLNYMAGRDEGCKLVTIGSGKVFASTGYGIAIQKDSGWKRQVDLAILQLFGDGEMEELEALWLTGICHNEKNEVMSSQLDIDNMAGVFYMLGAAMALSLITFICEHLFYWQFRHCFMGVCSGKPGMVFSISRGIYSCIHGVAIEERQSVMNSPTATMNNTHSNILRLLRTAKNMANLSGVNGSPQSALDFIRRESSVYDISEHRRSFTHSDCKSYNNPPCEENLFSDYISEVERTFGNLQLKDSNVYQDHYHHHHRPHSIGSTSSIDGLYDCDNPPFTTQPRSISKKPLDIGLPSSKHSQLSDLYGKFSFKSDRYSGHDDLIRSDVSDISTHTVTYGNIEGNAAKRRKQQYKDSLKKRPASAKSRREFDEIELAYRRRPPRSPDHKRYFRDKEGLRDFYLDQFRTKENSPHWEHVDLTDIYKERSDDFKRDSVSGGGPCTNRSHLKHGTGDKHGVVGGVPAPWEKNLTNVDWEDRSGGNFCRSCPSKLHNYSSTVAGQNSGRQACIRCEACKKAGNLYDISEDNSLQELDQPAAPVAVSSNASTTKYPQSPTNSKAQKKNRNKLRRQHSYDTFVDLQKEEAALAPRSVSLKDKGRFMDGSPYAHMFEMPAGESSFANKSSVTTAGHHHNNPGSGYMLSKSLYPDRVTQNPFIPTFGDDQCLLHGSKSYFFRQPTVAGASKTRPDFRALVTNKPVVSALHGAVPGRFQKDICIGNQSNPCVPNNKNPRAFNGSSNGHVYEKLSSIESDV

Biological target: p11 (S100A10) (mouse (endogenous in DRN)) (UniProt P08207)
Test: affinity purification with mass spectrometry; protein extracted from mouse DRN incubated with primary antibodies (anti-p11) or control IgG overnight at 4 °C, protein A/G magnetic beads 2 h, washed 3 times with lysis buffer; SDS-PAGE, gel slices, LC-MS/MS (IP-MS)

| binding | Substance |
| --- | --- |
| binds | Annexin A2 (from UniProt P07356 1-339) |
| binds | GluN2A (from UniProt P35436 23-1464) (receptor) |
| binds | GluN2B (from UniProt Q01097 27-1482) (receptor) |

Results are given in words; binding and its absence hold for the method and conditions named. Binding seen in cells or lysates may run through a third protein. A yes stands for co-enrichment or nearness to the bait. Other partners may have been found.
